Measurements: article PMC6063507
These are yes or no findings as the source states them, for the method shown. Binding seen in cells or lysates may run through a third protein. Some entries that bind do so weakly or less than the wild type.

By UniProt entry, the sequences of proteins in these tests, tags left out. Where a name states a change or a piece, a line headed by the entry shows the natural chain unless it says otherwise. Residues count along the entry.
UniProt Q9NPY3, residues 22-652: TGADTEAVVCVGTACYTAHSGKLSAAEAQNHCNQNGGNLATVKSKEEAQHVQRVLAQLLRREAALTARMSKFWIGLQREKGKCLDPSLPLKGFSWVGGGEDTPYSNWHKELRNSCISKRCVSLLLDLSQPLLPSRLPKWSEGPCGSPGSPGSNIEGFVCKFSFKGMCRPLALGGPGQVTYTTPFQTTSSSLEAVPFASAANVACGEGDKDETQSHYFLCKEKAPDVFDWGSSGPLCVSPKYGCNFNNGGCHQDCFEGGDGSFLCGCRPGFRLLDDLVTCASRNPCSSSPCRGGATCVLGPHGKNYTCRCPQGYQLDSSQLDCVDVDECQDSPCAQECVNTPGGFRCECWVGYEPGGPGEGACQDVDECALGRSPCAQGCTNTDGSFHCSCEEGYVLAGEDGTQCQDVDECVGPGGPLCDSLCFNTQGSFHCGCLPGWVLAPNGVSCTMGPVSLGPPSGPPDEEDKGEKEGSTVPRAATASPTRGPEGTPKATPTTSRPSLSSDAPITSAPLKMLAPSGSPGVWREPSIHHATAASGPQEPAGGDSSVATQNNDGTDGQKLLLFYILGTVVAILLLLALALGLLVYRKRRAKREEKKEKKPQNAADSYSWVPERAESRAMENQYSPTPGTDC
UniProt P05556: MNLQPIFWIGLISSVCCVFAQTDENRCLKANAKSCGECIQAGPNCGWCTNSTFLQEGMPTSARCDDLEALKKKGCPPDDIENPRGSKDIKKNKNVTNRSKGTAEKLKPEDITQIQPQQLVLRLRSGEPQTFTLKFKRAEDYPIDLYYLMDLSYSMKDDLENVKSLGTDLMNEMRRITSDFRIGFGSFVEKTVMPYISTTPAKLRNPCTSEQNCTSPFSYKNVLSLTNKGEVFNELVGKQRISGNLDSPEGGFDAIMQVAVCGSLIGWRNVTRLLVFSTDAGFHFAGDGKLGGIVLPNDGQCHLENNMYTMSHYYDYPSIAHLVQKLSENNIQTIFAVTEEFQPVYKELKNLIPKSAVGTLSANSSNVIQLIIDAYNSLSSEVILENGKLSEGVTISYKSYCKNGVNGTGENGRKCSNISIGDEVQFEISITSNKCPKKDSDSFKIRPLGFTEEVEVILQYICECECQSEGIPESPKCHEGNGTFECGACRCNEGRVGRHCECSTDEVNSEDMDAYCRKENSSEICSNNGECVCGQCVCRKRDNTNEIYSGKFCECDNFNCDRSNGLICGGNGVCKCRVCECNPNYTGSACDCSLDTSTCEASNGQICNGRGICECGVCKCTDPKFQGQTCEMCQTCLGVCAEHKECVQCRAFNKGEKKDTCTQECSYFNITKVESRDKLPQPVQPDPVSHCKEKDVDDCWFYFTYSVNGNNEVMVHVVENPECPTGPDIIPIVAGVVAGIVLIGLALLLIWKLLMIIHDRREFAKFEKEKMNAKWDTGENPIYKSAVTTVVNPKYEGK

Target: CD93 (human (endogenous in HDMECs and HDBECs)) (UniProt Q9NPY3)
Assay: proximity ligation; in situ PLA (Duolink II) on cultured HDBECs with pairs of primary antibodies; single primary antibodies and probes alone as negative controls; signals per cell counted

binding: binds
Substance: active β1 integrin (from UniProt P05556 21-798) (receptor)
